# Results as given in the supplement of paper PMC8728848.
# The other results are listed elsewhere or left out.
# B1: Surfactant Protein D (Human); Neck + Carbohydrate Recognition Domain (NCRD) (Homo sapiens) (protein)
# chain: MLLFLLSALVLLTQPLGYLEAEMKTYSHRTMPSACTLVMCSSVESGLPGRDRDGREGPRGEKGDPGLPGAAGQAGMPGQAGPVGPKGDNGSVGEPGPKGDTGPSGPPGPPGVPGPAGREGALGKQGNIGPQGKPGPKGEAGPKGEVGAPGMQGSAGARGLAGPKGERGVPGERGVPGNTGAAGSAGAMGPQGSPGARGPPGLKGDKGIPGDKGAKGESGLPDVASLRQQVEALQGQVQHLQAAFSQYKKVELFPNGQSVGEKIFKTAQFVKPFTEAQLLCTQAGGQLASPRSAAENAALQQLVVAKNEAAFLSMTDSKTEGKFTYPTGESLVYSNWAPGKPNDDGGSEDCVEIFTNGKWNDRACGEKRLVVCEF
# Legend:
# Experiment in all cases: glycan array binding signal (z-score within array); higher = stronger binding
# Conditions in all cases: glycan notation: IUPAC condensed, linker removed; mutation: E321K
# [1] = target: Neu5Ac(a2-6)Gal(b1-4)GlcNAc(b1-2)Man(a1-3)[Gal(b1-4)GlcNAc(b1-2)Man(a1-6)]Man(b1-4)GlcNAc(b1-4)GlcNAc
# Summary of the method: (§1)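 Glycan array data came from 3228 arrays in the Consortium for Functional Glycomics database, and only arrays with an available protein sequence were kept. Glycan names were put into IUPAC-condensed notation, and columns mapping to the same glycan were averaged. The binding signal is a within-array Z-score, averaged across arrays of one protein sequence run at different concentrations or buffers and across linkers. A negative Z-score can be read as non-binding.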
# [2] = target: Neu5Ac(a2-6)Gal(b1-4)GlcNAc(b1-2)Man(a1-3)[GlcNAc(b1-2)Man(a1-6)]Man(b1-4)GlcNAc(b1-4)GlcNAc
# Summary of the method: as §1
# [3] = target: Neu5Ac(a2-6)Gal(b1-4)GlcNAc(b1-2)Man(a1-3)[GlcNAc(b1-2)Man(b1-4)GlcNAc(b1-2)Man(a1-6)]Man(b1-4)GlcNAc(b1-4)GlcNAc
# Summary of the method: as §1
# [4] = target: Neu5Ac(a2-6)Gal(b1-4)GlcNAc(b1-2)Man(a1-3)[Neu5Ac(a2-6)Gal(b1-4)GlcNAc(b1-2)Man(a1-6)]Man(b1-4)GlcNAc(b1-4)GlcNAc
# Summary of the method: as §1
# [5] = target: Neu5Ac(a2-6)Gal(b1-4)GlcNAc(b1-2)Man(a1-6)[Gal(b1-4)GlcNAc(b1-2)Man(a1-3)]Man(b1-4)GlcNAc(b1-4)GlcNAc
# Summary of the method: as §1
# [6] = target: Neu5Ac(a2-6)Gal(b1-4)GlcNAc(b1-2)Man(a1-6)[GlcNAc(b1-2)Man(a1-3)]Man(b1-4)GlcNAc(b1-4)GlcNAc
# Summary of the method: as §1
# [7] = target: Neu5Ac(a2-6)Gal(b1-4)GlcNAc(b1-3)Gal(b1-4)GlcNAc
# Summary of the method: as §1
# [8] = target: Neu5Ac(a2-6)Gal(b1-4)GlcNAc(b1-3)Gal(b1-4)[Fuc(a1-3)]GlcNAc(b1-3)Gal(b1-4)[Fuc(a1-3)]GlcNAc
# Summary of the method: as §1
# [9] = target: Neu5Ac(a2-6)Gal(b1-4)GlcNAc6S
# Summary of the method: as §1
# Neu5Ac(a2-6)GalNAc = target: Neu5Ac(a2-6)GalNAc
# Summary of the method: as §1
# [10] = target: Neu5Ac(a2-6)GalNAc(b1-4)GlcNAc
# Summary of the method: as §1
# Neu5Ac(a2-8)Neu5Ac = target: Neu5Ac(a2-8)Neu5Ac
# Summary of the method: as §1
# [11] = target: Neu5Ac(a2-8)Neu5Ac(a2-3)Gal(b1-4)Glc
# Summary of the method: as §1
# [12] = target: Neu5Ac(a2-8)Neu5Ac(a2-3)[GalNAc(b1-4)]Gal(b1-4)Glc
# Summary of the method: as §1
# [13] = target: Neu5Ac(a2-8)Neu5Ac(a2-8)Neu5Ac
# Summary of the method: as §1
# [14] = target: Neu5Ac(a2-8)Neu5Ac(a2-8)Neu5Ac(a2-3)Gal(b1-4)Glc
# Summary of the method: as §1
# [15] = target: Neu5Ac(a2-8)Neu5Ac(a2-8)Neu5Ac(a2-3)[GalNAc(b1-4)]Gal(b1-4)Glc
# Summary of the method: as §1
# [16] = target: Neu5Ac(a2-8)Neu5Ac(a2-8)Neu5Ac(a2-8)Neu5Ac(a2-3)[GalNAc(b1-4)]Gal(b1-4)Glc
# Summary of the method: as §1
# [17] = target: Neu5Ac(b2-6)Gal(b1-4)GlcNAc
# Summary of the method: as §1
# Neu5Ac(b2-6)GalNAc = target: Neu5Ac(b2-6)GalNAc
# Summary of the method: as §1
# [18] = target: Neu5Ac9Ac(a2-6)Gal(b1-4)GlcNAc
# Summary of the method: as §1
# [19] = target: Neu5Gc(a2-3)Gal(b1-3)GlcNAc
# Summary of the method: as §1
# [20] = target: Neu5Gc(a2-3)Gal(b1-3)[Fuc(a1-4)]GlcNAc
# Summary of the method: as §1
# Neu5Gc(a2-3)Gal(b1-4)Glc = target: Neu5Gc(a2-3)Gal(b1-4)Glc
# Summary of the method: as §1
# [21] = target: Neu5Gc(a2-3)Gal(b1-4)GlcNAc
# Summary of the method: as §1
# [22] = target: Neu5Gc(a2-3)Gal(b1-4)[Fuc(a1-3)]GlcNAc
# Summary of the method: as §1
# [23] = target: Neu5Gc(a2-6)Gal(b1-4)GlcNAc
# Summary of the method: as §1
# Neu5Gc(a2-6)GalNAc = target: Neu5Gc(a2-6)GalNAc
# Summary of the method: as §1
# [24] = target: Neu5Gc(b2-6)Gal(b1-4)GlcNAc
# Summary of the method: as §1
binder,measurement,setting,value
B1,glycan array binding signal (z-score),[1],-0.145
same,glycan array binding signal (z-score),[2],0.141
same,glycan array binding signal (z-score),[3],5.34
same,glycan array binding signal (z-score),[4],-0.334
same,glycan array binding signal (z-score),[5],-0.67
same,glycan array binding signal (z-score),[6],-0.556
same,glycan array binding signal (z-score),[7],-0.587
same,glycan array binding signal (z-score),[8],-0.093
same,glycan array binding signal (z-score),[9],1.05
same,glycan array binding signal (z-score),Neu5Ac(a2-6)GalNAc,-0.188
same,glycan array binding signal (z-score),[10],0.412
same,glycan array binding signal (z-score),Neu5Ac(a2-8)Neu5Ac,0.491
same,glycan array binding signal (z-score),[11],-0.938
same,glycan array binding signal (z-score),[12],-0.563
same,glycan array binding signal (z-score),[13],-0.381
same,glycan array binding signal (z-score),[14],-0.475
same,glycan array binding signal (z-score),[15],0.225
same,glycan array binding signal (z-score),[16],-0.482
same,glycan array binding signal (z-score),[17],-0.057
same,glycan array binding signal (z-score),Neu5Ac(b2-6)GalNAc,3.67
same,glycan array binding signal (z-score),[18],-0.118
same,glycan array binding signal (z-score),[19],0.207
same,glycan array binding signal (z-score),[20],-0.22
same,glycan array binding signal (z-score),Neu5Gc(a2-3)Gal(b1-4)Glc,-0.993
same,glycan array binding signal (z-score),[21],0.239
same,glycan array binding signal (z-score),[22],-0.117
same,glycan array binding signal (z-score),[23],-0.918
same,glycan array binding signal (z-score),Neu5Gc(a2-6)GalNAc,0.65
same,glycan array binding signal (z-score),[24],-0.334

# Quoted at random: two records from the list, in no set order.
binder,measurement,setting,value
B1,glycan array binding signal (z-score),[17],-0.057
same,glycan array binding signal (z-score),[24],-0.334
